System: VIP receptors on neuroblastoma (NMB) cells
Test: VIP binding and displacement on intact neuroblastoma (NMB) cells
Set-up: species or system human
Method: Alternatively, the VIP was iodinated according to the procedure described by Werner, et al. (Biochem. Biophys. Res. Commun., 133:228-232 (1985)). […] Experiments were repeated at least three times, each containing triplicates, error bars represent the standard error. Cells were grown for 24 hours (circles) and 48 hours (triangles). […] The binding parameters were determined by ACCUFIT program, Lundon-2 competition analysis (LUNDON software Inc., Chargin Falls, Ohio, U.S.A.). […] The calculated Bmax was 6×10^-14 moles/mg and 1.5×10^-14 moles/mg for cells grown for 24 hours as compared to cells grown for 48 hours, respectively.

CC[C@H](C)[C@H](NC(=O)[C@H](CO)NC(=O)[C@H](CC(N)=O)NC(=O)[C@H](CC(C)C)NC(=O)[C@H](Cc1ccc(O)cc1)NC(=O)[C@H](CCCCN)NC(=O)[C@H](CCCCN)NC(=O)[C@@H](NC(=O)[C@H](C)NC(=O)[C@H](CCSC)NC(=O)[C@H](CCC(N)=O)NC(=O)[C@H](CCCCN)NC(=O)[C@H](CCCNC(=N)N)NC(=O)[C@H](CC(C)C)NC(=O)[C@H](CCCNC(=N)N)NC(=O)[C@@H](NC(=O)[C@H](Cc1ccc(O)cc1)NC(=O)[C@H](CC(N)=O)NC(=O)[C@H](CC(=O)O)NC(=O)[C@@H](NC(=O)[C@H](Cc1ccccc1)NC(=O)[C@@H](NC(=O)[C@H](C)NC(=O)[C@H](CC(=O)O)NC(=O)[C@H](CO)NC(=O)[C@@H](N)Cc1c[nH]cn1)C(C)C)[C@@H](C)O)[C@@H](C)O)C(C)C)C(=O)N[C@@H](CC(C)C)C(=O)N[C@@H](CC(N)=O)C(N)=O [VIP, Vasoactive intestinal polypeptide]
Bmax (cells grown for 24 hours): 6e-14 mol/mg | Bmax (cells grown for 48 hours): 1.5e-14 mol/mg
